Record: PubChem BioAssay AID1259254 (NCATS, 2017)

- Screen: 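Gene knock-downs that lead to re-replication, shown by excess G2 DNA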 (primary screen)
- System: human HCT116 colorectal cancer cells
- Reagent: single siRNA against human genes
- Duration: 3 days
- Read-out: 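Nuclei stained with Hoechst and imaged; cell-cycle phase assigned by DNA content; G2 share scaled per plate, non-targeting siRNA 0%, GMNN siRNA 100%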
- Scale: G2 robust z-score and G2 cells, % of GMNN control: higher = more G2 cells, more excess DNA replication
- Hit rule: 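Active siRNAs have a G2 robust z of 5 or more median absolute deviations over the median, which in these data means about 38% or higher of GMNN control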
In all, the deposit lists about 59,000 reagents; this is a part drawn at random. Of all reagents, about 1,550 (2.6%) were called active. 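G2 share is only a proxy for re-replication; each gene was hit by three separate siRNAs, and active genes were retested.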 The numbers tell different reagents against one gene apart. Further read-outs or replicates are left out here. Not stated in the record: the amount of reagent.

gene	reagent	G2 robust z-score	G2 cells, % of GMNN control	call
THAP10	1	0.419	5.92	inactive
THAP10	2	-0.769	-2.44	inactive
THAP10	3	1.12	10.8	inactive
HS3ST5	1	3.03	24.3	inactive
HS3ST5	2	0.0754	3.5	inactive
HS3ST5	3	-0.907	-3.41	inactive
SOX21	1	0.482	6.36	inactive
SOX21	2	0.129	3.87	inactive
SOX21	3	-0.689	-1.88	inactive
EZH1	1	3.55	27.9	inactive
EZH1	2	0.111	3.75	inactive
EZH1	3	-0.261	1.13	inactive
AGO3	1	-1.23	-5.7	inactive
AGO3	2	4.34	33.5	inactive
AGO3	3	0.756	8.29	inactive
SERPINA3	1	-0.48	-0.413	inactive
SERPINA3	2	3.15	25.1	inactive
SERPINA3	3	0.457	6.19	inactive
CYP27A1	1	-0.563	-0.994	inactive
CYP27A1	2	1.89	16.3	inactive
CYP27A1	3	2.29	19.1	inactive
AHCY	1	4.35	33.6	inactive
AHCY	2	2.12	17.9	inactive
AHCY	3	2.31	19.2	inactive
SLC22A1	1	-0.976	-3.9	inactive
SLC22A1	2	-1.03	-4.29	inactive
SLC22A1	3	-0.83	-2.87	inactive
IER5	1	0.34	5.36	inactive
IER5	2	0.565	6.95	inactive
IER5	3	-0.719	-2.09	inactive
ITFG2	1	2.74	22.2	inactive
ITFG2	2	0.605	7.22	inactive
ITFG2	3	-0.859	-3.08	inactive
ASPA	1	0.217	4.49	inactive
ASPA	2	0.98	9.86	inactive
ASPA	3	-1.05	-4.4	inactive
ZNF580	1	0.966	9.76	inactive
ZNF580	2	-1.04	-4.37	inactive
ZNF580	3	0.0256	3.15	inactive
MAIP1	1	1.19	11.4	inactive
MAIP1	2	0.171	4.17	inactive
MAIP1	3	-0.516	-0.661	inactive
INTS8	1	-0.57	-1.04	inactive
INTS8	2	0.192	4.32	inactive
INTS8	3	0.617	7.31	inactive
CNTN1	1	0.926	9.48	inactive
CNTN1	2	0.347	5.41	inactive
CNTN1	3	-0.302	0.844	inactive
SENP2	1	0.111	3.75	inactive
SENP2	2	0.471	6.28	inactive
SENP2	3	-0.475	-0.372	inactive
AASDHPPT	1	-0.0827	2.39	inactive
AASDHPPT	2	1.81	15.7	inactive
AASDHPPT	3	0.378	5.63	inactive
IQCF1	1	-0.419	0.0229	inactive
IQCF1	2	2.61	21.3	inactive
IQCF1	3	-0.202	1.55	inactive
BLOC1S6	1	4.7	36.1	inactive
BLOC1S6	2	1.45	13.1	inactive
BLOC1S6	3	-1.18	-5.31	inactive
BLNK	1	1.45	13.1	inactive
BLNK	2	-0.621	-1.4	inactive
BLNK	3	0.87	9.09	inactive
YWHAE	1	1.12	10.9	inactive
YWHAE	2	0.836	8.85	inactive
YWHAE	3	-0.861	-3.09	inactive
YWHAE	4	5.12	39	active
YWHAE	5	-0.372	0.352	inactive
YWHAE	6	0.624	7.36	inactive

4 consecutive entries already listed, for reference:
gene	reagent	G2 robust z-score	G2 cells, % of GMNN control	call
IQCF1	1	-0.419	0.0229	inactive
IQCF1	2	2.61	21.3	inactive
IQCF1	3	-0.202	1.55	inactive
BLOC1S6	1	4.7	36.1	inactive
